For 3 molecules, binding results are on record in patent US20100316634A1 (published 2010).

To fix the notation:
B1: murine monoclonal antibody 2B6 (antibody, V domains shown)
VH: QVQLKESGPGLVAPSQSLSITCTVSGFSLTSYSVHWVRQPPGKGLEWLGVIWASGGTDYNSALMSRLSISKDNSKSQVFLKLNSLQTDDTAMYYCARDPPSSLLRLDYWGQGTTLTVSS
VL: DIVMTQSPSSLSVSAGEKVTMSCKSSQSLLNSGNQKNYLAWYQQKPGQPPKLLIYGASTRESGVPDRFTGSGSGTDFTLSISSVQAEDLAVYYCQNVHSFPFTFGSGTELEIK
B2: murine monoclonal antibody 2E3 (antibody, V domains shown)
VH: PGLVAPSQSLSITCTVSGFSLTSYSVHWVRQPPGKGLEWLGVIWASGGTDYNSALMSRLSISKDNSKSQVFLKLNSLQTDDAAMYYCARDPPFSLLRLDFWGQGTTLTVSS
VL: SSLSVSAGEKVTMSCKSSQSLLNSGNQKNYLAWYQQKPGQPPKLLIYGASTRESGVPDRFTGSGSGTDFTLTISSVQAEDLAVYYCQNDHSFPFTFGSGTELEIK
B3: murine monoclonal antibody 2F2 (antibody, V domains shown)
VH: B2 VH with Q78R, A82T, F93S, F100Y
VL: B2 VL

Substitutions are numbered along the chain they refer to. Results are given in words; binding and its absence hold for the method and conditions named.

The target of this assay is human TGF (Greek letter lost) (human). As to the kind of experiment: ELISA, supernatants of the cloned lines.
In the case of B1, the binding result was “no binding”. The same measure for B2: “no binding”; for B3: “no binding”.
